Read-outs that look alike come from different tables or passages of the source. For at least one compound, name, drawing or mass did not settle the structure.
How the values were obtained:
SARS-CoV-2 = assay: Antiviral activity in HeLa-ACE2 cells (viral protein detection); format: cell-based; details: compound alone
SARS-CoV-2 USA-WA1/2020 = format: cell-based

With `CCC(CC)COC(=O)[C@H](C)N[P@](=O)(OC[C@H]1O[C@@](C#N)(c2ccc3c(N)ncnn23)[C@H](O)[C@@H]1O)Oc1ccccc1` [remdesivir, reference compound] the EC50 (SARS-CoV-2) was 74 nM, the EC90 (SARS-CoV-2) was 170 nM and the “SARS-CoV-2 viral infectious titers in apical washes” value (SARS-CoV-2 USA-WA1/2020) was “potently inhibit SARS-CoV-2 titers in a dose-dependent manner”. For the same compound, the “SARS-CoV-2 viral infectious titers in apical washes” value (SARS-CoV-2 USA-WA1/2020; 10 μM doses) was “viral titers below the limit of 366 detection at most time points”.

Source: patent US20230157998A1, “Methods of Inhibiting SARS-CoV-2 Replication and Treating Corona Virus Disease 2019” (Pfizer Inc., priority 2020, published 2023)
